Results as given in patent US20050058649A1.
No constants are given. Whether binding was seen depends on the method and setting. Some results given as binding are weak or reduced against the parent protein; the word gives no strength.

How the values were obtained:
[1] = molecular target: T1, phospholipase A2 (PLA2) (Homo sapiens (Human)) (UniProt O15496); test: SPOTs array of overlapping 12-mer PLA2 peptides
T1 sequence: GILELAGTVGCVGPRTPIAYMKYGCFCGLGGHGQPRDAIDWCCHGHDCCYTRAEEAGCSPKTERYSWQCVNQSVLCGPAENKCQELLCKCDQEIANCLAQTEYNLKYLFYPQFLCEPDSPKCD

[2] = molecular target: T1, phospholipase A2 (PLA2) (Homo sapiens (Human)); test: dot blot / SPOTs peptide array of PLA2

- binding [1]: binds
- binding [2]: binds
B1: anti-PLA2 mAb 2.23 (antibody, IgG4, V domains shown)
VH: QVQLEESGGGVVQPGRSLRLSCAASGFTFSSYGMHWVRQGPGKGLEWVAVIWYDGSNKKYADSVKGRFTISRDNSKNTLYLQMNSLRAEDTAVYYCARDGPIFGVVMGYWGQGTLVTVSS
VL: DIQMTQSPSSLSASVGDRVTITCRTSQSISNYLNWFQQKPGKAPILLIYAASSLQSGVPSRFSGSGSGTDFTLTISSLQPEDFATYYCHQSYSIPITFGQGTRLEIKR
